Structures were worked out from names or drawings and are uncertain.
Target: FAAH in human bladder epithelial cancer-derived cell line 5678 cells (Homo sapiens, UniProt O00519)
Assay: Screening for FAAH activity-inhibiting substance with human bladder epithelial cancer-derived cell (IC50, Table 64)
Format: cell-based
Conditions: read-out: cell FAAH IC50

Chains of the proteins cited; added tags and fusions are not shown.
UniProt O00519, whole entry: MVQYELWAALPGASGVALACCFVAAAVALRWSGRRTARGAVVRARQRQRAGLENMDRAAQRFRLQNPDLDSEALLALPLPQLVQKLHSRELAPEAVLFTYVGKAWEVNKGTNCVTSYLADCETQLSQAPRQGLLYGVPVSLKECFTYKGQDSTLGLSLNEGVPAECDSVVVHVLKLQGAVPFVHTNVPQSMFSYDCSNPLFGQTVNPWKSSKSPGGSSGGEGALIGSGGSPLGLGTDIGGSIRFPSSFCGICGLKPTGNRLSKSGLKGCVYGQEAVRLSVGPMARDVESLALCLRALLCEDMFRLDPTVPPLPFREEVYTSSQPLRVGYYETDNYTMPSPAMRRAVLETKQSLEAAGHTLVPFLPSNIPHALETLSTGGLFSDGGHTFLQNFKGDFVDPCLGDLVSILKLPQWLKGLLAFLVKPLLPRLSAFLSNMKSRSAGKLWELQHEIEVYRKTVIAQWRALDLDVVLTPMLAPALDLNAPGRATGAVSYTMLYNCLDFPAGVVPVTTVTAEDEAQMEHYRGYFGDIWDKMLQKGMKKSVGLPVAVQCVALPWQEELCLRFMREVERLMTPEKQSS

Row | SMILES | IC50
1 | O=C(Oc1cccnc1)N1CCN(CCCCc2ccccc2)CC1 | 0.1 nM
2 | COCc1ccc(OC(=O)N2CCC(Cc3ccccc3)CC2)cn1 | 0.44 nM

Reference: US7919495B2, “Pyridyl non-aromatic nitrogen-containing heterocyclic-1-carboxylate compound” (Astellas Pharma, Inc., priority 2005, dated 2011)
